Data: patent US20060089318A1, “Inhibitors of adp-ribosyl transferases, cyclases, and hydrolases” (priority 2002, published 2006)
For at least one compound, name, drawing or mass did not settle the structure.

Legend:
human CD38 [1] = target: T1, human CD38 (Homo sapiens, UniProt P28907); assay: Off-rate measurement: recovery of inhibited CD38 in excess NGD+; type: biochemical; parameters: The soluble domain of human CD38 catalyzes the conversion of NAD^+ to cyclic-ADP-ribose; conditions: 19° C.
T1 sequence (P28907 43-300 limits assumed): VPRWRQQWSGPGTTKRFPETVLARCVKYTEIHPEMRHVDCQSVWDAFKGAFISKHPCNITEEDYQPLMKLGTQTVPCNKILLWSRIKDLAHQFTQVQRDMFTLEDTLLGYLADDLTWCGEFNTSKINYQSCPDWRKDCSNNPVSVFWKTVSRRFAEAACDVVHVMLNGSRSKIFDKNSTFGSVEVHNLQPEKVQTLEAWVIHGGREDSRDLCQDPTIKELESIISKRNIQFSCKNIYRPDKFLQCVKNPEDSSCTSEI
Experimental: Off-Rate Measurement. 500 nM CD38 in 50 mM potassium phosphate pH 7.2 was incubated with 15 μM inhibitor for 30 min at room temperature. 5 μL of the enzyme inhibitor solution was added to a cuvette containing 1 mL reaction of 50 mM potassium phosphate pH 7.5 containing 300 μM NGD^+ pre-chilled to 19° C. Production of […] was determined by monitoring […] absorbance. The absorbance was fit to the equation A(t)=vt+(b−v) (1−exp(−kt))k+A0 where A(t) is the absorbance, k is the rate constant of recovery, b is the initial rate, v is the final rate and A0 is the initial absorbance. A control lacking inhibitor but in all other respects identical was also run.
Recovery from Inhibition. […] The solution 295 nm absorbance is monitored spectrophotometrically to assay conversion of NGD^+ to cGDPR as a consequence of regain of CD38 catlytic activity. […] The absorbance curves with the same equation used for slow-onset: At=vit+(vi−vf)(1−exp(−kt))/k+A0 where At is absorbance, vi is initial velocity, vf is final velocity, t is time in s, k is the rate of the recovery rate constant and A0 is the absorbance of the sample at initial time. The rate constant for the recovery phase was obtained from the average value of k determined from the separate fits. The value of koff for 1 was determined to be 1.5×10^−5 s^−1 and for 2 was determined to be 2.5×10^−5 s^−1.

human CD38 [2] = target: T1, human CD38; assay: Radiochemical measurement of inhibitor binding (labeling of CD38 by [2'-3H] inhibitor, gel filtration and scintillation counting); parameters: The soluble domain of human CD38 catalyzes the conversion of NAD^+ to cyclic-ADP-ribose; conditions: from specific activity and protein concentration
Experimental: Radiochemical measurement of inhibitor binding. […] Inhibitor at 9 μM with specific radioactivity of 866 cpm/nmol, was incubated with 1.2 μM CD38 (monomer) in 1 mL 50 mM potassium phosphate (pH 7.5). The reactions were started by enzyme addition and quenched by freezing with a dry ice/acetone bath at 30, 60 90, 120, 250, 500, and 1000 s. Cooled (0° C.) gel filtration columns were used to separate protein with cooled (0° C.) 10 mM potassium phosphate as eluant. The frozen fraction were quickly thawed, applied to these columns and fractions collected in 1 mL volumes over the course of several minutes. Scintillation fluid (9 mL) was then added to each 1 mL fraction and samples counted. […] The observed radioactivity was fit using the equation A(t)=A0(1−exp(−kt))+B. where A0 is activity at reaction completion, k is the observed pseudo-first order rate constant and B is the activity of the blank.
Titration of Enzyme with [2′-^3H]Inhibitor. CD38 inactivation was accomplished using a radiolabeled inhibitor to assess inhibitor interactions with the enzyme independent from inhibition of the catalytic activity. This method allows the determination of the stoichiometry of covalent labeling, and detects cooperativity at multiple sites. […] (FIG. 8) within reasonable agreement with the rate constant for inactivation in kinetic assays of inhibition (kon=0.0042 s^−1 at 19° C.). […]

SMILES	koff (rate constant of recovery from inhibition) (human CD38 [1]) [× 1O^−5 s^−1]	Stoichiometry of labeling, inhibitor versus CD38 monomer (human CD38 [2])
Cc1cc(C(N)=O)c[n+]([C@H]2C[C@H](O)[C@@H](CO)O2)c1 [inhibitor 2, β-5-methyl-nicotinamide-2′-deoxyriboside]	2.5	
NC(=O)c1ccc[n+]([C@H]2C[C@H](O)[C@@H](CO)O2)c1 [inhibitor 1, β-nicotinamide-2′-deoxyriboside]	1.5	1:1
[3H]C1[C@H]([n+]2cccc(C(N)=O)c2)O[C@H](CO)[C@H]1O (stereo partly shown) [[2-^3H]-1, [2′-^3H]Nicotinamide deoxyriboside]		1:1
